Test results taken from PubChem BioAssay AID264 (DTP/NCI, 2004).
The list does not hold the whole screen: it gathers tests that were run many times, whatever their T/C, doses with no T/C, and many T/C values between a quarter and a half above the control. Further doses and runs are listed elsewhere. T/C: endpoint of the treated group in % of that of the vehicle group. Schedules are NCI's codes, taken here to give the interval after Q, in days (D) or hours (H), and the number of doses after X. Some T/C values are followed by the survivors on the day toxicity was checked, most often the fifth; where none is given, no animal had died by that day. Some doses have a count of surviving animals in place of a T/C: the source holds a T/C of zero for them, seemingly a mark for toxic or unscored doses. Counts of survivors are from the toxicity check (mostly the fifth day) where no day follows; animals may have died later.

Tested on: nude mice, LX-1 lung xenograft intrarenal, tumor weight T/C
Test: NCI In Vivo Anticancer Drug Screen. Data for tumor model Human Lung LX-1 Xenograft (intrarenal inoculation) in NU/NU Swiss (nude) mice
Conditions: T/C endpoint: mean tumor weight change, higher T/C = larger tumour; for T/C: evaluated on day 11
Outline: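 In vivo, transplantable tumor; compound vs vehicle arms; tumor size measured; value = T/C.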

Q: Which results are given for O=[Te]=O?
A: T/C (dose: 25.0 mg/kg/injection, schedule: Q04DX003 (sc), vehicle: suspension in saline): 136 % of control; survivor count (dose: 50.0 mg/kg/injection, schedule: Q04DX003 (sc), vehicle: suspension in saline): 1 of 6 on day 11; survivor count (dose: 100.0 mg/kg/injection, schedule: Q04DX003 (sc), vehicle: suspension in saline): 0 of 6 on day 11

Q: Which results are given for CCOC(=O)Nc1cc2c(c(N)n1)N=C(c1ccccc1)CN2?
A: survivor count (dose: 12.5 mg/kg/injection, schedule: Q04DX003 (sc), vehicle: saline with Tween-80): 3 of 6 on day 11; survivor count (dose: 50.0 mg/kg/injection, schedule: Q04DX003 (sc), vehicle: saline with Tween-80): 2 of 6 on day 11

Q: For Cn1cc(C2NC(=O)c3ccccc3N2)c2ccccc21 (stereo not drawn), which survivor count (dose: 2400.0 mg/kg/injection, schedule: Q04DX003 (sc), vehicle: Klucel (hydroxypropylcellulose) (HPC)) is on record?
A: The survivor count was 0 of 6 on day 11.

Q: OCC1OC(n2cnc3c2NC=NC[C@H]3O)CC1O (stereo partly drawn) was tested. Which survivor count (dose: 8.0 mg/kg/injection, schedule: Q01DX010 (sc), vehicle: water) did it give?
A: Its survivor count is 2 of 6 on day 11.

Q: What about the survivor count (dose: 16.0 mg/kg/injection, schedule: Q01DX010 (sc), vehicle: water) of the same compound?
A: The survivor count was 1 of 6 on day 11.

Q: With C=C1C(=O)C2=CC1CCC(=O)C1(C)CCC(OC(C)=O)C(C)(C)C1CC2O (stereo not drawn) as the compound, how does the T/C (dose: 30.0 mg/kg/injection, schedule: Q04DX003 (sc), vehicle: Klucel (hydroxypropylcellulose) (HPC)) read?
A: Its T/C is 144 % of control.

Q: What about the survivor count (dose: 240.0 mg/kg/injection, schedule: Q04DX003 (sc), vehicle: Klucel (hydroxypropylcellulose) (HPC)) of the same compound?
A: The survivor count was 0 of 6 on day 11.

Q: Which results are given for O=C(O)CSc1nc(-c2ccccc2)c(-c2ccccc2)n1-c1ccccn1?
A: survivor count (dose: 200.0 mg/kg/injection, schedule: Q01DX010 (sc), vehicle: water): 1 of 3 on day 11; survivor count (dose: 400.0 mg/kg/injection, schedule: Q01DX010 (sc), vehicle: water): 0 of 3 on day 11

Q: Which survivor count (dose: 1600.0 mg/kg/injection, schedule: Q01DX010 (sc), vehicle: Klucel (hydroxypropylcellulose) (HPC)) does the source give for O=c1[nH]c(=O)n(C2CC(O)C(CO)O2)cc1Br (stereo not drawn) here?
A: The survivor count was 0 of 3 on day 11.

Q: With COc1cccc2c1C(=O)c1c(O)c3c(c(O)c1C2=O)C[C@@](O)(/C(C)=N/NC(=O)c1cccc([N+](=O)[O-])c1)C[C@@H]3OC1CC(N)C(O)C(C)O1 (stereo partly drawn) as the compound, how does the survivor count (dose: 32.0 mg/kg/injection, schedule: Q01DX010 (sc), vehicle: water) read?
A: Its survivor count is 0 of 3 on day 11.

Q: Which results are given for COCC1OC2OC3C(COC)OC(OC4C(COC)OC(OC5C(COC)OC(OC6C(COC)OC(OC7C(COC)OC(OC8C(COC)OC(OC1C(O)C2O)C(O)C8O)C(O)C7O)C(O)C6O)C(O)C5O)C(O)C4O)C(O)C3O (stereo not drawn) (tested in a mixture with another compound)?
A: survivor count (dose: 400.0 mg/kg/injection, schedule: Q04DX003 (sc), vehicle: Klucel (hydroxypropylcellulose) (HPC)): 3 of 5 on day 11; survivor count (dose: 800.0 mg/kg/injection, schedule: Q04DX003 (sc), vehicle: Klucel (hydroxypropylcellulose) (HPC)): 2 of 6 on day 11; survivor count (dose: 1600.0 mg/kg/injection, schedule: Q04DX003 (sc), vehicle: Klucel (hydroxypropylcellulose) (HPC)): 2 of 6 on day 11

Q: N#CC(C#N)=C/C=C/c1cccc([N+](=O)[O-])c1 was tested. Which T/C (dose: 6.25 mg/kg/injection, schedule: Q01DX010 (sc), vehicle: Klucel (hydroxypropylcellulose) (HPC)) did it give?
A: Its T/C is 133 % of control.

Q: What about the T/C (dose: 12.5 mg/kg/injection, schedule: Q01DX010 (sc), vehicle: Klucel (hydroxypropylcellulose) (HPC)) of the same compound?
A: Its T/C is 148 % of control.

Q: And the T/C (dose: 200.0 mg/kg/injection, schedule: Q01DX010 (sc), vehicle: Klucel (hydroxypropylcellulose) (HPC))?
A: The T/C was 143 % of control [2 of 3 alive on day 11].

Q: For CCC1=C[C@H]2CN(CCc3c([nH]c4ccccc34)[C@@](C(=O)OC)(c3cc4c(cc3OC)N(C)[C@H]3[C@@](O)(C(=O)OC)[C@H](OC(C)=O)[C@]5(CC)C=CCN6CC[C@]43[C@@H]65)C2)C1, which survivor count (dose: 24.0 mg/kg/injection, schedule: Q04DX003 (sc), vehicle: water) is on record?
A: Its survivor count is 2 of 6 on day 11.

Q: And the survivor count (dose: 48.0 mg/kg/injection, schedule: Q04DX003 (sc), vehicle: water)?
A: The survivor count was 3 of 6 on day 11.

Q: For CC1(C)CC(=O)C(CSC(=O)c2ccccc2)C(=O)C1, which survivor count (dose: 600.0 mg/kg/injection, schedule: Q04DX003 (sc), vehicle: Klucel (hydroxypropylcellulose) (HPC)) is on record?
A: Its survivor count is 1 of 5 on day 11.

Q: And the survivor count (dose: 1200.0 mg/kg/injection, schedule: Q04DX003 (sc), vehicle: Klucel (hydroxypropylcellulose) (HPC))?
A: Its survivor count is 0 of 6 on day 11.

Q: What does the source list for c1ccc([P+](c2ccccc2)(c2ccccc2)c2ccccc2)cc1?
A: survivor count (dose: 40.0 mg/kg/injection, schedule: Q04DX003 (sc), vehicle: saline): 0 of 6 on day 11; survivor count (dose: 80.0 mg/kg/injection, schedule: Q04DX003 (sc), vehicle: saline): 0 of 6 on day 11

Q: With CCC(C(=O)O)C(=O)O.[NH2-].[NH2-].[Pt+2] as the compound, how does the survivor count (dose: 300.0 mg/kg/injection, schedule: Q04DX003 (sc), vehicle: saline) read?
A: Its survivor count is 1 of 6 on day 11.

Q: How did the survivor count (dose: 25.0 mg/kg/injection, schedule: Q04DX003 (sc), vehicle: Klucel (hydroxypropylcellulose) (HPC)) turn out when C=C1C(C)C2C(Cc3ccccc3)NC(=O)C23C(OC(C)=O)/C=C/C(C)(O)CC(C)C/C=C/C3C1O (stereo not drawn) was run?
A: Its survivor count is 3 of 6 on day 11.

Q: And the survivor count (dose: 50.0 mg/kg/injection, schedule: Q04DX003 (sc), vehicle: Klucel (hydroxypropylcellulose) (HPC))?
A: The survivor count was 2 of 6 on day 11.

Q: How did the survivor count (dose: 1600.0 mg/kg/injection, schedule: Q04DX003 (sc), vehicle: distilled water + Tween-80) turn out when O=C(NO)c1ccc(O)c(O)c1 was run?
A: The survivor count was 0 of 6 on day 11.

Q: What does the source list for Nc1nc2c(C(=O)N3CCCC3)nnn2c2ccccc12?
A: T/C (dose: 37.5 mg/kg/injection, schedule: Q04DX003 (sc), vehicle: saline with Tween-80): 132 % of control; T/C (dose: 75.0 mg/kg/injection, schedule: Q04DX003 (sc), vehicle: saline with Tween-80): 135 % of control; survivor count (dose: 300.0 mg/kg/injection, schedule: Q04DX003 (sc), vehicle: saline with Tween-80): 0 of 6 on day 11

Q: C[C@]12CC[C@H](O)CC1=CC[C@@H]1[C@@H]2CC[C@]2(C)C(=O)CC[C@@H]12 was tested. Which T/C (dose: 600.0 mg/kg/injection, schedule: Q04DX003 (sc), vehicle: saline with Tween-80) did it give?
A: The T/C was 141 % of control.

Q: What does the source list for [N-]=[N+]=C1N=CN=C1c1ncn[nH]1?
A: T/C (dose: 25.0 mg/kg/injection, schedule: Q01DX010 (sc), vehicle: Klucel (hydroxypropylcellulose) (HPC)): 128 % of control; survivor count (dose: 100.0 mg/kg/injection, schedule: Q01DX010 (sc), vehicle: Klucel (hydroxypropylcellulose) (HPC)): 0 of 3 on day 11

Q: How did the survivor count (dose: 150.0 mg/kg/injection, schedule: Q04DX003 (sc), vehicle: Klucel (hydroxypropylcellulose) (HPC)) turn out when COc1cc2cc[n+](C)c(Cc3ccccc3)c2cc1OC was run?
A: Its survivor count is 0 of 6 on day 11.

Q: What about the survivor count (dose: 300.0 mg/kg/injection, schedule: Q04DX003 (sc), vehicle: Klucel (hydroxypropylcellulose) (HPC)) of the same compound?
A: Its survivor count is 0 of 6 on day 11.

Q: How did the survivor count (dose: 50.0 mg/kg/injection, schedule: Q01DX010 (sc), vehicle: saline with Tween-80) turn out when CN(N=O)C(N)=O was run?
A: The survivor count was 0 of 3 on day 11.

Q: And the survivor count (dose: 100.0 mg/kg/injection, schedule: Q01DX010 (sc), vehicle: saline with Tween-80)?
A: Its survivor count is 0 of 3 on day 11.

Q: Which survivor count (dose: 320.0 mg/kg/injection, schedule: Q01DX010 (sc), vehicle: saline) does the source give for COc1cc(Cc2nccc3cc(OC)c(OC)cc23)c(C(C)=O)c(OC)c1 here?
A: The survivor count was 1 of 3 on day 11.

Q: What does the source list for CC1(C)CC1(Br)Br?
A: survivor count (dose: 400.0 mg/kg/injection, schedule: Q01DX010 (sc), vehicle: saline with Tween-80): 1 of 3 on day 11; survivor count (dose: 800.0 mg/kg/injection, schedule: Q01DX010 (sc), vehicle: saline with Tween-80): 1 of 3 on day 11
